Measured values from ChEMBL document CHEMBL1157379, “Transcriptional response of Candida parapsilosis following exposure to farnesol” (2007).
Further values from the same series stand in other lists.

Experiments:
Type in all cases: functional
Candida parapsilosis [1] = assay: Decrease in CGD gene ortholog accession number orf19.2940 expression in Candida parapsilosis CLIB214 at 50 uM after 2 hrs by microarray based transcriptional profiling relative to control
Candida parapsilosis [2] = assay: Decrease in HSP30 gene expression in Candida parapsilosis CLIB214 at 50 uM after 2 hrs by microarray based transcriptional profiling relative to control
Candida parapsilosis [3] = assay: Decrease in CGD gene ortholog accession number orf19.1007 expression in Candida parapsilosis CLIB214 at 50 uM after 2 hrs by microarray based transcriptional profiling relative to control
Candida parapsilosis [4] = assay: Decrease in CGD gene ortholog accession number orf19.2136 expression in Candida parapsilosis CLIB214 at 50 uM after 2 hrs by microarray based transcriptional profiling relative to control
Candida parapsilosis [5] = assay: Decrease in CGD gene ortholog accession number orf19.3332 expression in Candida parapsilosis CLIB214 at 50 uM after 2 hrs by microarray based transcriptional profiling relative to control
Candida parapsilosis [6] = assay: Decrease in CGD gene ortholog accession number orf19.4157 expression in Candida parapsilosis CLIB214 at 50 uM after 2 hrs by microarray based transcriptional profiling relative to control
Candida parapsilosis [7] = assay: Decrease in CGD gene ortholog accession number orf19.100 expression in Candida parapsilosis CLIB214 at 50 uM after 2 hrs by microarray based transcriptional profiling relative to control
Candida parapsilosis [8] = assay: Decrease in CGD gene ortholog accession number orf19.1976 expression in Candida parapsilosis CLIB214 at 50 uM after 2 hrs by microarray based transcriptional profiling relative to control
Candida parapsilosis [9] = assay: Increase in ISW2 gene expression in Candida parapsilosis CLIB214 at 50 uM after 2 hrs by microarray based transcriptional profiling relative to control
Candida parapsilosis [10] = assay: Increase in ARG2 gene expression in Candida parapsilosis CLIB214 at 50 uM after 2 hrs by microarray based transcriptional profiling relative to control
Candida parapsilosis [11] = assay: Increase in CGD gene ortholog accession number orf19.6843 expression in Candida parapsilosis CLIB214 at 50 uM after 2 hrs by microarray based transcriptional profiling relative to control
Candida parapsilosis [12] = assay: Decrease in CGD gene ortholog accession number orf19.673 expression in Candida parapsilosis CLIB214 at 50 uM after 2 hrs by microarray based transcriptional profiling relative to control
Candida parapsilosis [13] = assay: Increase in CGD gene ortholog accession number orf19.7243 expression in Candida parapsilosis CLIB214 at 50 uM after 2 hrs by microarray based transcriptional profiling relative to control
Candida parapsilosis [14] = assay: Increase in CGD gene ortholog accession number orf19.2335 expression in Candida parapsilosis CLIB214 at 50 uM after 2 hrs by microarray based transcriptional profiling relative to control
Candida parapsilosis [15] = assay: Increase in CGD gene ortholog accession number orf19.7261 expression in Candida parapsilosis CLIB214 at 50 uM after 2 hrs by microarray based transcriptional profiling relative to control
Candida parapsilosis [16] = assay: Increase in ARD gene expression in Candida parapsilosis CLIB214 at 50 uM after 2 hrs by microarray based transcriptional profiling relative to control
Candida parapsilosis [17] = assay: Decrease in GSG1 gene expression in Candida parapsilosis CLIB214 at 50 uM after 2 hrs by microarray based transcriptional profiling relative to control
Candida parapsilosis [18] = assay: Decrease in CGD gene ortholog accession number orf19.1852 expression in Candida parapsilosis CLIB214 at 50 uM after 2 hrs by microarray based transcriptional profiling relative to control
Candida parapsilosis [19] = assay: Increase in GenBank accession number NP_943636.1 expression in Candida parapsilosis CLIB214 at 50 uM after 2 hrs by microarray based transcriptional profiling relative to control
Candida parapsilosis [20] = assay: Increase in DBP2 gene expression in Candida parapsilosis CLIB214 at 50 uM after 2 hrs by microarray based transcriptional profiling relative to control
Candida parapsilosis [21] = assay: Increase in NAD3 gene expression in Candida parapsilosis CLIB214 at 50 uM after 2 hrs by microarray based transcriptional profiling relative to control
Candida parapsilosis [22] = assay: Increase in CGD gene ortholog accession number orf19.5356 expression in Candida parapsilosis CLIB214 at 50 uM after 2 hrs by microarray based transcriptional profiling relative to control
Candida parapsilosis [23] = assay: Increase in TUF1 gene expression in Candida parapsilosis CLIB214 at 50 uM after 2 hrs by microarray based transcriptional profiling relative to control
Candida parapsilosis [24] = assay: Decrease in CGD gene ortholog accession number orf19.2770 expression in Candida parapsilosis CLIB214 at 50 uM after 2 hrs by microarray based transcriptional profiling relative to control
Candida parapsilosis [25] = assay: Decrease in SAP5 gene expression in Candida parapsilosis CLIB214 at 50 uM after 2 hrs by microarray based transcriptional profiling relative to control
Candida parapsilosis [26] = assay: Increase in CGD gene ortholog accession number orf19.5407 expression in Candida parapsilosis CLIB214 at 50 uM after 2 hrs by microarray based transcriptional profiling relative to control
Candida parapsilosis [27] = assay: Increase in CGD gene ortholog accession number orf19.7048 expression in Candida parapsilosis CLIB214 at 50 uM after 2 hrs by microarray based transcriptional profiling relative to control
Candida parapsilosis [28] = assay: Increase in GenBank accession number NP_943647.1 expression in Candida parapsilosis CLIB214 at 50 uM after 2 hrs by microarray based transcriptional profiling relative to control
Candida parapsilosis [29] = assay: Increase in CGD gene ortholog accession number orf19.1954 expression in Candida parapsilosis CLIB214 at 50 uM after 2 hrs by microarray based transcriptional profiling relative to control
Candida parapsilosis [30] = assay: Increase in CGD gene ortholog accession number orf19.1222 expression in Candida parapsilosis CLIB214 at 50 uM after 2 hrs by microarray based transcriptional profiling relative to control
Candida parapsilosis [31] = assay: Decrease in CGD gene ortholog accession number orf19.337 expression in Candida parapsilosis CLIB214 at 50 uM after 2 hrs by microarray based transcriptional profiling relative to control
Candida parapsilosis [32] = assay: Decrease in CGD gene ortholog accession number orf19.7065 expression in Candida parapsilosis CLIB214 at 50 uM after 2 hrs by microarray based transcriptional profiling relative to control
Candida parapsilosis [33] = assay: Decrease in CGD gene ortholog accession number orf19.6621 expression in Candida parapsilosis CLIB214 at 50 uM after 2 hrs by microarray based transcriptional profiling relative to control
Candida parapsilosis [34] = assay: Decrease in HOF1 gene expression in Candida parapsilosis CLIB214 at 50 uM after 2 hrs by microarray based transcriptional profiling relative to control
Candida parapsilosis [35] = assay: Decrease in CGD gene ortholog accession number orf19.1531 expression in Candida parapsilosis CLIB214 at 50 uM after 2 hrs by microarray based transcriptional profiling relative to control
Candida parapsilosis [36] = assay: Decrease in CGD gene ortholog accession number orf19.4763 expression in Candida parapsilosis CLIB214 at 50 uM after 2 hrs by microarray based transcriptional profiling relative to control

For `CC(C)=CCC/C(C)=C/CC/C(C)=C/CO` [FARNESOL], the “fold change (FC)” value (Candida parapsilosis [1]) was 2.11, the “fold change (FC)” value (Candida parapsilosis [2]) was 2.14 and the “fold change (FC)” value (Candida parapsilosis [3]) was 1.93. For the same molecule, the “fold change (FC)” value (Candida parapsilosis [4]) was 2, the “fold change (FC)” value (Candida parapsilosis [5]) was 2.2 and the “fold change (FC)” value (Candida parapsilosis [6]) was 2.2. The “fold change (FC)” value (Candida parapsilosis [7]) was 2.2, the “fold change (FC)” value (Candida parapsilosis [8]) was 2.2 and the “fold change (FC)” value (Candida parapsilosis [9]) was 1.72. For the same molecule, the “fold change (FC)” value (Candida parapsilosis [10]) was 1.56, the “fold change (FC)” value (Candida parapsilosis [11]) was 1.56 and the “fold change (FC)” value (Candida parapsilosis [12]) was 1.58. The “fold change (FC)” value (Candida parapsilosis [13]) was 1.87, the “fold change (FC)” value (Candida parapsilosis [14]) was 1.86 and the “fold change (FC)” value (Candida parapsilosis [15]) was 1.84. For the same molecule, the “fold change (FC)” value (Candida parapsilosis [16]) was 1.82, the “fold change (FC)” value (Candida parapsilosis [17]) was 1.76 and the “fold change (FC)” value (Candida parapsilosis [18]) was 1.63. The “fold change (FC)” value (Candida parapsilosis [19]) was 3.81, the “fold change (FC)” value (Candida parapsilosis [20]) was 3.1 and the “fold change (FC)” value (Candida parapsilosis [21]) was 2.76. For the same molecule, the “fold change (FC)” value (Candida parapsilosis [22]) was 2.75, the “fold change (FC)” value (Candida parapsilosis [23]) was 3.88 and the “fold change (FC)” value (Candida parapsilosis [24]) was 1.92. For the same molecule, the “fold change (FC)” value (Candida parapsilosis [25]) was 1.93, the “fold change (FC)” value (Candida parapsilosis [26]) was 1.66 and the “fold change (FC)” value (Candida parapsilosis [27]) was 1.64. For the same molecule, the “fold change (FC)” value (Candida parapsilosis [28]) was 1.62, the “fold change (FC)” value (Candida parapsilosis [29]) was 1.68 and the “fold change (FC)” value (Candida parapsilosis [30]) was 1.68. For the same molecule, the “fold change (FC)” value (Candida parapsilosis [31]) was 1.55, the “fold change (FC)” value (Candida parapsilosis [32]) was 2.41 and the “fold change (FC)” value (Candida parapsilosis [33]) was 2.8. For the same molecule, the “fold change (FC)” value (Candida parapsilosis [34]) was 2.93, the “fold change (FC)” value (Candida parapsilosis [35]) was 1.72 and the “fold change (FC)” value (Candida parapsilosis [36]) was 1.87.
